# Data from patent publication US20260193623.
# The exact form of at least one protein or probe is not confirmed. For part of these data: Negatives hold for the conditions tested. Protein sequences can lack the tags named with them.
# Legend:
# Assay in all cases: activity assay
# MG153-35 = system: T1, MG153-35; conditions: primer extension gel; 3 mM MgCl2, 37 C; protein translated in vitro; protein details: N-terminal Strep; label: 5'-FAM primer; DNA:RNA hybrid
# T1 sequence (limits assumed): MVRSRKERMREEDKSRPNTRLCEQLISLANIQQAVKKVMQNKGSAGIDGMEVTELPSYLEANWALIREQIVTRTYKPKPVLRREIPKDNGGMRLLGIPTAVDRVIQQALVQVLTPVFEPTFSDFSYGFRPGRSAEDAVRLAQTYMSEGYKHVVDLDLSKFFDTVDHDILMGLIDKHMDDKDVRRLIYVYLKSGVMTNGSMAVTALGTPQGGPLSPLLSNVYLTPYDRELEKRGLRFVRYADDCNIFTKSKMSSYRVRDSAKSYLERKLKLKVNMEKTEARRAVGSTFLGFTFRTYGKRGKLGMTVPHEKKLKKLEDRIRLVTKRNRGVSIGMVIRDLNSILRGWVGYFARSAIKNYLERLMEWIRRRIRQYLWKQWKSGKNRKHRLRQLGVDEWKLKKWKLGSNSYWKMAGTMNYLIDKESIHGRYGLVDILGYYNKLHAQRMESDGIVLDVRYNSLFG
# MG159-1 = system: T2, MG159-1; conditions: primer extension on general RNA; protein translated in vitro; protein details: N-terminal Strep; label: 5'-FAM primer; DNA:RNA hybrid
# T2 sequence: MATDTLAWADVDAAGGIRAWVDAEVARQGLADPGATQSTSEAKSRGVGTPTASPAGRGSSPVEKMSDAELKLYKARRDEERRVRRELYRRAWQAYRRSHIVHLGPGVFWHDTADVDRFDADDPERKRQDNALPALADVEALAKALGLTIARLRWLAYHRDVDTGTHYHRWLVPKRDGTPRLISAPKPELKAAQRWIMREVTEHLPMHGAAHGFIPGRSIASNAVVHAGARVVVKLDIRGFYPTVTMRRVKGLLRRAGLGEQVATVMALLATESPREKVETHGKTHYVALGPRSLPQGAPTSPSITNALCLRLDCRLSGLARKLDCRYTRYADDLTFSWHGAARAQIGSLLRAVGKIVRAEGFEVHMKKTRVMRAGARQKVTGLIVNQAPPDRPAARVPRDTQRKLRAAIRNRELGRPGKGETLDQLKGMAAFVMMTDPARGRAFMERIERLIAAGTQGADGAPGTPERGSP
# MG151-90 = system: T3, MG151-90; conditions: primer extension gel; protein translated in vitro; protein details: Strep, RT-RNase H trim; label: 5'-FAM primer; DNA:RNA hybrid
# T3 sequence (limits assumed): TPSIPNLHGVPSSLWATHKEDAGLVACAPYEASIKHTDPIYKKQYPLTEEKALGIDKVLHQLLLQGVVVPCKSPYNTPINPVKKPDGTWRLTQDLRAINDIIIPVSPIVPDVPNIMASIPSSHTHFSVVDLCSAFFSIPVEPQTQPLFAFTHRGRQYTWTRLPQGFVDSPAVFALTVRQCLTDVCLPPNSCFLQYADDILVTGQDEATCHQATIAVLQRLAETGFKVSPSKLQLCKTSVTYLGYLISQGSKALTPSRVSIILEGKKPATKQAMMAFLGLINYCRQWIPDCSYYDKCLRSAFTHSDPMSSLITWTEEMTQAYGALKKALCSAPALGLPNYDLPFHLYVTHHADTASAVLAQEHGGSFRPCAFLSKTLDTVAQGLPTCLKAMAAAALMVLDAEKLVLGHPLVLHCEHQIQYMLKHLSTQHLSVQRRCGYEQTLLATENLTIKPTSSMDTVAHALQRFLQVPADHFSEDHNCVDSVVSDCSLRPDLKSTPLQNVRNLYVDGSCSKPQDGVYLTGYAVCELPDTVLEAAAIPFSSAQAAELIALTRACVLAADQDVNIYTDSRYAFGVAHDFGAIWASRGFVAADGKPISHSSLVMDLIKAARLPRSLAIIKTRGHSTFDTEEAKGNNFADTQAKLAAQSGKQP
# MG167-4 = system: T4, MG167-4; conditions: primer extension gel; protein translated in vitro; protein details: N-terminal Strep; label: 5'-FAM primer; DNA:RNA hybrid
# T4 sequence (limits assumed): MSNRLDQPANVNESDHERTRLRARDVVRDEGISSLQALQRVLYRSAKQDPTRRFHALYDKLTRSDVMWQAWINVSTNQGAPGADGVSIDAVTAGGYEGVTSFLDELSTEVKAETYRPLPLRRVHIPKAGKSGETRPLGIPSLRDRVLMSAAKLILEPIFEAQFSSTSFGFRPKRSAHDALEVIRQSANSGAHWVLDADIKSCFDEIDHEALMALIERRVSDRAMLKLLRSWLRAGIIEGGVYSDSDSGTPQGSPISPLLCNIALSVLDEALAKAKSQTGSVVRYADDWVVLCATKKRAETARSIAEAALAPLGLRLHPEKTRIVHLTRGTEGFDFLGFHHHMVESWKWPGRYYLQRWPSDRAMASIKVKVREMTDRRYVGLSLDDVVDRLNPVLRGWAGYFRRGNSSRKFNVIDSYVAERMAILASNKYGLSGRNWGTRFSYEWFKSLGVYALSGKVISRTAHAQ
# MG155-2 = system: T5, MG155-2; conditions: primer extension on general RNA; protein translated in vitro; protein details: N-terminal Strep; label: 5'-FAM primer; DNA:RNA hybrid
# T5 sequence: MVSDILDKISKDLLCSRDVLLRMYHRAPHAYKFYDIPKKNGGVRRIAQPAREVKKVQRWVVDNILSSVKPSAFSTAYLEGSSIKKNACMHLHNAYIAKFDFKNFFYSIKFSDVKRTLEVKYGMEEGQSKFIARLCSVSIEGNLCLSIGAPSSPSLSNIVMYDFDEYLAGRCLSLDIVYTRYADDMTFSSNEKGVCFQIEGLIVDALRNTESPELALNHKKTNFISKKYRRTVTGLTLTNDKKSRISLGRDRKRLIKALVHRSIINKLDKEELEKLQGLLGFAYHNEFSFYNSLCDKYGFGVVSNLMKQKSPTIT
# MG155-1 = system: T6, MG155-1; conditions: tested, not listed as active; protein translated in vitro; protein details: N-terminal Strep; label: 5'-FAM primer; DNA:RNA hybrid
# T6 sequence (limits assumed): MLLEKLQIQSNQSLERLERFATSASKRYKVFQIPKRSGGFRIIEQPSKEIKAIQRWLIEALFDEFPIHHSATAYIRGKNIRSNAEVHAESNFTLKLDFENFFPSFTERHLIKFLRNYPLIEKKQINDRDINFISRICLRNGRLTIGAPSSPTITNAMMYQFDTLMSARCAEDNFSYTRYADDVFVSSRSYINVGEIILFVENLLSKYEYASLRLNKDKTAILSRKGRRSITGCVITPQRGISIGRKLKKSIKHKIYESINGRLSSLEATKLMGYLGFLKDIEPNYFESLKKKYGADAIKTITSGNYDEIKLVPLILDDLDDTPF
sequence,measurement,setting,value
GGCAAACCGCCTCTCCCCGCGCGTTGGCCGATTCATTAATGCAGCTGGCACGACAGGTTTCCCGACTGGAAAGGAGACCCGGGCAGTGAGCGCAACGGGTCTCCAATTTAAGCCAGCCCCGACACCCGCCAACACCCGCTGACGCGCCCTGACGGGCTTGTCTGCTCCCGGCATCCGCTTACAGACAAGCTGTGACCGTCTC / GAGACGGTCACAGCTTGTCTG [202-nt RNA template annealed to DNA primer],activity on this sequence,MG153-35,active
same,activity on this sequence,MG159-1,active
same,activity on this sequence,MG151-90,active
same,activity on this sequence,MG167-4,active
same,activity on this sequence,MG155-2,active
same,activity on this sequence,MG155-1,not active
